Some of the results follow.

Protein sequences, listed by entry. Tags and fused reporters are not part of them.
UniProt Q0JBA9, entry or part of it: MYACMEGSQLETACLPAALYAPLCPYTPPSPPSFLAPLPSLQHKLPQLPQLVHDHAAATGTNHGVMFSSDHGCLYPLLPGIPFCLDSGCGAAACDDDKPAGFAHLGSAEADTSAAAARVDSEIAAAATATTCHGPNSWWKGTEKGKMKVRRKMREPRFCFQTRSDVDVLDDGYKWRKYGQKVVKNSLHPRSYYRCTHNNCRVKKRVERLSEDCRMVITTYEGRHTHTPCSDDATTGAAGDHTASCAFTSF

The target in the experiment is OsWRKY34 (Oryza sativa, UniProt Q0JBA9 1-250). As to the kind of experiment: protein-binding microarray (RPBM); PBS, 2% BSA, 51.3 ng/ul salmon testes DNA, 50 uM zinc acetate, 200 nM TF, 25 C, 1 h; high values mean tight binding. The following applies: protein: recombinant; tags: N-terminal polyhistidine and DsRed monomer fusion (pET32a); label: CyDye5-dUTP incorporated in the synthesized complementary strand; 3' TTTTT single-stranded linker to array surface; dsDNA, one strand shown. In short, it runs like this:
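Using Ni–NTA, transcription factors fused N-terminally to polyhistidine and DsRed were purified after expression in E. coli BL21-CodonPlus. These were incubated at 200 nM with a blocked, double-stranded custom Agilent array for 1 h at 25 °C in a buffer containing 50 µM zinc acetate, and the array was washed. The binding signal is per-feature fluorescence intensity (arbitrary units) on an Axon 4000B scanner.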
For “CATCCTCATCATGAACTACAGCTTTATTACATAGTAACCGCGGAGTCACCTAGTGCAG”, the binding signal is 8370 fluorescence intensity (a.u.). Take “ATTAGTGCCCGAACACCCCATGCGACGCCCTATATAATACCGGAGTCACCTAGTGCAG”: the binding signal is 8640 fluorescence intensity (a.u.). Turning to “TATTGTAAATCGTTTGACTTTTTTCTTGATCAAAATTCTTCGGAGTCACCTAGTGCAG”, the binding signal was 8070 fluorescence intensity (a.u.).

On to “ATTAATACCTGACCCTACCTATCATATACATATTGCGTCTCGGAGTCACCTAGTGCAG”, for which the binding signal is 10800 fluorescence intensity (a.u.).

With “CACTACTATCTGCCTCACCGTTAACCCTACCGAATAAATTCGGAGTCACCTAGTGCAG”, the binding signal was 8880 fluorescence intensity (a.u.). Consider “TCTTGATTTTTGCATTAGTAGTAGTTGCGTCTTATATTTTCGGAGTCACCTAGTGCAG”, for which the binding signal was 12100 fluorescence intensity (a.u.). Take “TCACCTTATCGTCACGCTCTCCCTATTTTTTTTCCCCTTTCGGAGTCACCTAGTGCAG”: the binding signal was 8490 fluorescence intensity (a.u.). As for “CCCTTTTTTTTTCATTGTTACAACTTTAACACTATAAGTTCGGAGTCACCTAGTGCAG”, the binding signal is 9860 fluorescence intensity (a.u.). With “GATGGTTTAGAATTCTCTTTAGGCTGCACCCAAAATTTCTCGGAGTCACCTAGTGCAG”, the binding signal was 11100 fluorescence intensity (a.u.).

As to “ATTTCCTTAAAATCTTTCTCTTTTGCCCAATTTGATTTCCCGGAGTCACCTAGTGCAG”, the binding signal is 8420 fluorescence intensity (a.u.). Then “ACTCGCTTGTGTCTGCCTCTCGGCAATGTATGATTTGATCCGGAGTCACCTAGTGCAG”, with 9260 fluorescence intensity (a.u.). For “AGGCCTCCATAAAAACTCCATCTCGATCGTCTCATCTCATCGGAGTCACCTAGTGCAG”, the binding signal is 8440 fluorescence intensity (a.u.).

With “TCGTGTTGGTGGTGGTGGTGGTGTGCGGGCGGGCGGGCGCCGGAGTCACCTAGTGCAG”, the binding signal is 33300 fluorescence intensity (a.u.). Consider “TTGCTGGTTAGTGAATTGTAGTTTGCACATTGAAATGATTCGGAGTCACCTAGTGCAG”, for which the binding signal was 8790 fluorescence intensity (a.u.). On to “TGGTTCATCTGTTGATCACTTCTTTGTTTCCCGCGTTTTGCGGAGTCACCTAGTGCAG”, for which the binding signal was 13300 fluorescence intensity (a.u.). Regarding “TTAAAACTGAAATTATCGTATGTGCCTTGTCGCCGTGATTCGGAGTCACCTAGTGCAG”, the binding signal was 8090 fluorescence intensity (a.u.). For the sequence “GAGATGAATCTTTTAAGCCTAATTGCACCATCATTTAATACGGAGTCACCTAGTGCAG”, the binding signal was 8360 fluorescence intensity (a.u.). Then “ACAATACCTGCGCTTTCCATCCTATCATCCTATCCCCGACCGGAGTCACCTAGTGCAG”, with 11300 fluorescence intensity (a.u.). Regarding “TGTTTTGGTTTAGACTTTTCGACTTATAAGTTGTCTTATACGGAGTCACCTAGTGCAG”, the binding signal was 8500 fluorescence intensity (a.u.).

For “TACTATCACATATCCGGATTCATCATTAATTTCTGTAGCTCGGAGTCACCTAGTGCAG”, the binding signal was 10400 fluorescence intensity (a.u.). For the sequence “CGCCACGGGTGCCCGCGTCATCCCATCCCCTCGCGCGTCGCGGAGTCACCTAGTGCAG”, the binding signal is 9250 fluorescence intensity (a.u.). With “TCTGCTGCCGCTCACTTAACGAATCGCATGCACCTGATCACGGAGTCACCTAGTGCAG”, the binding signal was 8340 fluorescence intensity (a.u.). Then “TGGTCGGGTGTTTTTGTGATTGATGGTTTTGGTAGACGGGCGGAGTCACCTAGTGCAG”, with 11200 fluorescence intensity (a.u.). Then “GACCAAGACCCACGACCTCGCCTTCGCGACGCGGCCCATCCGGAGTCACCTAGTGCAG”, with 8220 fluorescence intensity (a.u.); and “CCTCCGGATCCTCGGCCCCGTCTTCTCCGACTCCTCCAGCCGGAGTCACCTAGTGCAG”, with 8320 fluorescence intensity (a.u.). On to “TTCACGTGTGTTTTGTGTAGTTTTCTACCAGTTTGTTGAACGGAGTCACCTAGTGCAG”, for which the binding signal was 8470 fluorescence intensity (a.u.). Then “CCGCCTCCGCCGTGCGACCTCCGCATTCTCCCGCGCCGCGCGGAGTCACCTAGTGCAG”, with 8260 fluorescence intensity (a.u.); and “CATATGGTGTCTTGTAAATTTCCTTTTCCACGTACTAACACGGAGTCACCTAGTGCAG”, with 12400 fluorescence intensity (a.u.). For “CCCGTCGCCTTTAACTCCATCCATCGCGTCGCCTTCCCTTCGGAGTCACCTAGTGCAG”, the binding signal was 8510 fluorescence intensity (a.u.). Take “TTGTGTGGTTTTGTAATTTGATTCTATTCCTAAGTTGAGACGGAGTCACCTAGTGCAG”: the binding signal was 8100 fluorescence intensity (a.u.). Then “CAGCGAGCGCACACCCAACAAGATTTGACTAATTGCTCGCCGGAGTCACCTAGTGCAG”, with 8440 fluorescence intensity (a.u.); and “TACATTTTGAAGGTGGGAGGGTAGGATAGTAATTTCGCATCGGAGTCACCTAGTGCAG”, with 9380 fluorescence intensity (a.u.); and “TTTAGCTTAACTTATTACGATTATGGCTGTGTTTAGTTTCCGGAGTCACCTAGTGCAG”, with 9160 fluorescence intensity (a.u.). For “CTCCAATGTTTGCAGTTTGCACTACTGGTACCTATATCTTCGGAGTCACCTAGTGCAG”, the binding signal is 10600 fluorescence intensity (a.u.). For “TGTTTGTTGACTTTATACTTGAGCAAGTGTAAATCTTTTCCGGAGTCACCTAGTGCAG”, the binding signal is 13300 fluorescence intensity (a.u.). Turning to “ACTTCCACTTTTGCCGCTGGTAGTATTTCTTTTTGAGACACGGAGTCACCTAGTGCAG”, the binding signal is 11100 fluorescence intensity (a.u.). For “CTGCTGTGTCGTCGTCGTCGTCGGGAGTGGGGAGCGAGCGCGGAGTCACCTAGTGCAG”, the binding signal was 9110 fluorescence intensity (a.u.). “ACTGTTCAATTATTACCCTTACTTTGCTGTGAGATGGGTTCGGAGTCACCTAGTGCAG”: the binding signal is 9080 fluorescence intensity (a.u.).

With “TGGTGGTGGTGGTGGCTGTAGTGTGGAGGTGGTGGGGAGTCGGAGTCACCTAGTGCAG”, the binding signal is 16700 fluorescence intensity (a.u.). For the sequence “CGGTGGAGAGTGGCGGCTGGGTGGCTAGGTGGGTGAGAAACGGAGTCACCTAGTGCAG”, the binding signal was 9400 fluorescence intensity (a.u.). Next, “GACACCGGTGCTATGCACCACGAGAGCACGAGAAGAGACGCGGAGTCACCTAGTGCAG”: 14500 fluorescence intensity (a.u.); “GCCGCCCGTTTCAGATGTCATATCCCGTGCTAGTGTATACCGGAGTCACCTAGTGCAG”: 9470 fluorescence intensity (a.u.).

The record behind these values is article PMC7819943, “Rice protein-binding microarrays: a tool to detect cis-acting elements near promoter regions in rice”.
